Measured values published in the supplement of paper PMC10849652.
The list shows a part of the results.

Amino acid sequences for entries named in this document (tags omitted). A change or cut given only in a name is not applied to a line headed by its entry.
UniProt Q9NXC5: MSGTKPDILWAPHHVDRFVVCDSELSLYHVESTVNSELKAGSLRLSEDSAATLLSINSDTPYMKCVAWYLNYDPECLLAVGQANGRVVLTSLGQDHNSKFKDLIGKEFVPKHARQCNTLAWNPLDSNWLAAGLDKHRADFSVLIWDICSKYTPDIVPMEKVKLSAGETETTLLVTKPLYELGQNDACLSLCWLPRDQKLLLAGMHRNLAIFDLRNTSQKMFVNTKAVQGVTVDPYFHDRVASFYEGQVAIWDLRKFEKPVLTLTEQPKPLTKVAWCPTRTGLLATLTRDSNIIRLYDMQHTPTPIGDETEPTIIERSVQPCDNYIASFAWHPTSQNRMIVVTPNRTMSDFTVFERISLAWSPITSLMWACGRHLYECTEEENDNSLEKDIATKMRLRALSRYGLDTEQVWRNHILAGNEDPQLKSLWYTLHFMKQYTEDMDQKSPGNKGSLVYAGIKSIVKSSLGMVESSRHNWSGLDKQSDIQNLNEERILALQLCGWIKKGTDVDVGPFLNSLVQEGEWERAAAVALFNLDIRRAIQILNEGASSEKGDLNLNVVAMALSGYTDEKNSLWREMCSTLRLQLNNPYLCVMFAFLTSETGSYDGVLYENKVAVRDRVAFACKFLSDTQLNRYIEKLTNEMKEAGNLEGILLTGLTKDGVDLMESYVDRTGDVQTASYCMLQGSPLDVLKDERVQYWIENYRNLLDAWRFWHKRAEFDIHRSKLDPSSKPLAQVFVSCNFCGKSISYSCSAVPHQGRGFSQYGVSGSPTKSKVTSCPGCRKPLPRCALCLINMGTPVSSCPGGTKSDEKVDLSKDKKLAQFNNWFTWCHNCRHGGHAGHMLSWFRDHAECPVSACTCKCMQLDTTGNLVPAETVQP
UniProt Q03111: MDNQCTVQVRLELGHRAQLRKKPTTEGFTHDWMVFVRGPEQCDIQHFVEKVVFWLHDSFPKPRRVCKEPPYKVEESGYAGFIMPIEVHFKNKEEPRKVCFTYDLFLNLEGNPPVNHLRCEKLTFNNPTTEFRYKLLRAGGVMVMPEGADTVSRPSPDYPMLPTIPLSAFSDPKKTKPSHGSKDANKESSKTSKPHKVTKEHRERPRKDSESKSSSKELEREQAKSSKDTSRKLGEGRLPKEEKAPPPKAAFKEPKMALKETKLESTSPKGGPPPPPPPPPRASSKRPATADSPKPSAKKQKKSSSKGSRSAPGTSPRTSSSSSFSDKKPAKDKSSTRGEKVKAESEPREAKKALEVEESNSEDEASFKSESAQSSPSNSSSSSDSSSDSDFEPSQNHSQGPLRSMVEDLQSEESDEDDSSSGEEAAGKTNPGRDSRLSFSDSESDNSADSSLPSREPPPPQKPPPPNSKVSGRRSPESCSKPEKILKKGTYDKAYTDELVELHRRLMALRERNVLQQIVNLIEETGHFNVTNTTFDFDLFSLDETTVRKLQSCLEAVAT
UniProt Q14165: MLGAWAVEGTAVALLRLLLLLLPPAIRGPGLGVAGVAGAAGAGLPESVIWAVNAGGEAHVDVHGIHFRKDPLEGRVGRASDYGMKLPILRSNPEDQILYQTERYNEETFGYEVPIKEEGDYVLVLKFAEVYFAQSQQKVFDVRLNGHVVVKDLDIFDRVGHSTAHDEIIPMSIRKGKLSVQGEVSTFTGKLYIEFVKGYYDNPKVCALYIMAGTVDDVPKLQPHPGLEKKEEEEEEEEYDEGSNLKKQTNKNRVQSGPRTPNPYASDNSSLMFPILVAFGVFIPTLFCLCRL
UniProt P22033: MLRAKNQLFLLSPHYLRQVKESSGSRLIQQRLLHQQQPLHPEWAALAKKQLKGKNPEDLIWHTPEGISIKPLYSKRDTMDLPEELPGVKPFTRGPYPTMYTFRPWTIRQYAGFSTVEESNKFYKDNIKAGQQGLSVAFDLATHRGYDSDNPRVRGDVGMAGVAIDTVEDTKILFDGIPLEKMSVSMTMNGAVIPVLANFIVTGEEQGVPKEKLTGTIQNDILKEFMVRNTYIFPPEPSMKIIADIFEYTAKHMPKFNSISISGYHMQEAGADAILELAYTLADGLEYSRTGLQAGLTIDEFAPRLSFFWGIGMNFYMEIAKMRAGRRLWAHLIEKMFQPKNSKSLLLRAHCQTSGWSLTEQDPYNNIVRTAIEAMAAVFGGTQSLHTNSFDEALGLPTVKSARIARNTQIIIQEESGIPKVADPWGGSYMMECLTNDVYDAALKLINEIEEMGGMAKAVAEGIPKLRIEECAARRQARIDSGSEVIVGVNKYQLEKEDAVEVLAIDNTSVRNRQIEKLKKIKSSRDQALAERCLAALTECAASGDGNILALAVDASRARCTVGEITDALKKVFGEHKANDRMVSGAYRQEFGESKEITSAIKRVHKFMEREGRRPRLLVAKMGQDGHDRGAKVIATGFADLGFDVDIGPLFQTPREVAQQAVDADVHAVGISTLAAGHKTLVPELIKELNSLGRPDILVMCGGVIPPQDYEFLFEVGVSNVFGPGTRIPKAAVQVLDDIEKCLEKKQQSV
UniProt P29372, whole entry, looked up: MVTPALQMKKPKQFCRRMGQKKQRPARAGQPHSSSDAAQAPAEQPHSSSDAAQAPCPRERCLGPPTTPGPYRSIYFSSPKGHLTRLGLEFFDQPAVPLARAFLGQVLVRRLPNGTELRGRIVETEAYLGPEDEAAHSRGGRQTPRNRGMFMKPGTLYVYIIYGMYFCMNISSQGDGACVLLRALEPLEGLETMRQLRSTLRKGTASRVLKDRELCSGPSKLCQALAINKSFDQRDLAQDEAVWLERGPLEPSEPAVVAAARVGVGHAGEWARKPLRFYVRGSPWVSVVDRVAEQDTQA
UniProt Q9HC36: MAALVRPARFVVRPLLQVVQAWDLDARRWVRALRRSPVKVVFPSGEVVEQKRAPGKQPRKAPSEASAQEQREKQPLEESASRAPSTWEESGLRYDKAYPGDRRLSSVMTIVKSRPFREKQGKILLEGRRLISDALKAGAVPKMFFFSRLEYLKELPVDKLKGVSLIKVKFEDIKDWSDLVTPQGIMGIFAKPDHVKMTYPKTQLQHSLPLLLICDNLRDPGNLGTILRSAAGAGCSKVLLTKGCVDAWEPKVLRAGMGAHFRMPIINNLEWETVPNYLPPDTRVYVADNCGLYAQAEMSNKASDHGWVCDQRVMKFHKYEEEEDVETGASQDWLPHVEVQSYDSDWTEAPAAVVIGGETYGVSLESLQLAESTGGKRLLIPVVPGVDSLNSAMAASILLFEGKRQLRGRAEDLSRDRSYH
UniProt O95297: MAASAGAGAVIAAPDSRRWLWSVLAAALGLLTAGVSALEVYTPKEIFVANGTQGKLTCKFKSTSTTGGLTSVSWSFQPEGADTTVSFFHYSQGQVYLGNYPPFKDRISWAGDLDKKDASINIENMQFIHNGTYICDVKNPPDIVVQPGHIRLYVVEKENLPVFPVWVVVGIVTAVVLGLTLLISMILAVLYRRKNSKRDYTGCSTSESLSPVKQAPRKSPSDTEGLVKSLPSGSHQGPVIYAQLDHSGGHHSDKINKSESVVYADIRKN
UniProt Q6WCQ1: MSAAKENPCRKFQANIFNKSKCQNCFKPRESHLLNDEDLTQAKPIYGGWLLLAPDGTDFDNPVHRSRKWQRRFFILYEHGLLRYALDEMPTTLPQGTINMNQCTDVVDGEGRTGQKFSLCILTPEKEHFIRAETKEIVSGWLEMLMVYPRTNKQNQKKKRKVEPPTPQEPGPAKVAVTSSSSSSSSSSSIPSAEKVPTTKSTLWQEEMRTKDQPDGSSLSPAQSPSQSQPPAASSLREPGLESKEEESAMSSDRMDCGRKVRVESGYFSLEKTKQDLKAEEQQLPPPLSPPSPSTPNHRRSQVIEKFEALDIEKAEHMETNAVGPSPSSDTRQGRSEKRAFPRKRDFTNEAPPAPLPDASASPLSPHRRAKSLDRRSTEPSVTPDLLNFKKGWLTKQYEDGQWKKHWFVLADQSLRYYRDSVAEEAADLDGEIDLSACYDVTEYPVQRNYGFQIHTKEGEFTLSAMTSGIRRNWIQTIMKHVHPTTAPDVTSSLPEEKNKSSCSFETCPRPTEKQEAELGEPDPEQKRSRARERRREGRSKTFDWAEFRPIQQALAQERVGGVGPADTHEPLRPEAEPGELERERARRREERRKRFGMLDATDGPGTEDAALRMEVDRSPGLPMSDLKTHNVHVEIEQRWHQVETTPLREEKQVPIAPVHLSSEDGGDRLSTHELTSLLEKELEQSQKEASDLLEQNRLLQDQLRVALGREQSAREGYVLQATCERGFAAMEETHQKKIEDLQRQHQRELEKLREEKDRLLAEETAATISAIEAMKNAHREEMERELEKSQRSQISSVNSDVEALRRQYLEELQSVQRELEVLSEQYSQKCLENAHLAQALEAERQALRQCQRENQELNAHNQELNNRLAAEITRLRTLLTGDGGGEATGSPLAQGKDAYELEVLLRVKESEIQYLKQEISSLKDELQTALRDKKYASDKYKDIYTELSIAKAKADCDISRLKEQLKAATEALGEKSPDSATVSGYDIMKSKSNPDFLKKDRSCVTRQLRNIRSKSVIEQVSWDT
UniProt Q8N4V1: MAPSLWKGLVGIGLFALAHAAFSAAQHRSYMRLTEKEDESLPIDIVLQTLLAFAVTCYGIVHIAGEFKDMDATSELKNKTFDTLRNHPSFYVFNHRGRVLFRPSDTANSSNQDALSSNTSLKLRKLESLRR
UniProt Q9UNW1: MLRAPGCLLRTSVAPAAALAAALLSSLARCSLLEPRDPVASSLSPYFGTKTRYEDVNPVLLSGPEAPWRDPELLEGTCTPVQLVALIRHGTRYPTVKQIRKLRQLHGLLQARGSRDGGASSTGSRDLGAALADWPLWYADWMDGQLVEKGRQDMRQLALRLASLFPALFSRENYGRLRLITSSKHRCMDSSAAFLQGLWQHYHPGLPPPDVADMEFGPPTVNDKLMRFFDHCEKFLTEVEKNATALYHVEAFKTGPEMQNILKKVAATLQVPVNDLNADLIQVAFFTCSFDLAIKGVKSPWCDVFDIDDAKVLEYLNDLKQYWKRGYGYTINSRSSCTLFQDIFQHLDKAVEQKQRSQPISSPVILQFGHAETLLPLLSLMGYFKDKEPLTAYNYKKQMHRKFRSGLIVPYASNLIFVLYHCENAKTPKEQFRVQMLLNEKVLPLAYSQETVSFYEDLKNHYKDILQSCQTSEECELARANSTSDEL
UniProt P49959: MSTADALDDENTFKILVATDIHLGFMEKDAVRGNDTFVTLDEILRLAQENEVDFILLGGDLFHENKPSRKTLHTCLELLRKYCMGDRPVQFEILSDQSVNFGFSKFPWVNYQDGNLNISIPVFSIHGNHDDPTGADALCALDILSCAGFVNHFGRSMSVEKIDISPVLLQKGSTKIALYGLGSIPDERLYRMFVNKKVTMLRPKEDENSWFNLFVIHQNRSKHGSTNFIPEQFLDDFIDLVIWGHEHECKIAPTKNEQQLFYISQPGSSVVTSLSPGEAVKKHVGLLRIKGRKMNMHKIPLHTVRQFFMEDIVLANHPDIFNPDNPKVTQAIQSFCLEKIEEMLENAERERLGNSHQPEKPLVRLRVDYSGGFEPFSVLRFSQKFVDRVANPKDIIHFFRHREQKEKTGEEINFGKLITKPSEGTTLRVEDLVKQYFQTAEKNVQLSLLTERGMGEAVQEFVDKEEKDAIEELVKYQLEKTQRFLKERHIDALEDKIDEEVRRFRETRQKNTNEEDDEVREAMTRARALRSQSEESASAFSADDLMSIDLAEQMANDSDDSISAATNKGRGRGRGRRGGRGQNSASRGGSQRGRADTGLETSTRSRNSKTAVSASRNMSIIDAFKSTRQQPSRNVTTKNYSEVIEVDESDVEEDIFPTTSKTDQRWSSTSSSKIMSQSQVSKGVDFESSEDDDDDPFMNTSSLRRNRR
UniProt O95563: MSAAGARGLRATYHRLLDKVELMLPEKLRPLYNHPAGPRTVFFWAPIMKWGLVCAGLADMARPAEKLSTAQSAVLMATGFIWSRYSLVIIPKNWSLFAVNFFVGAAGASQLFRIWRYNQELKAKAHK
UniProt Q9NYP9: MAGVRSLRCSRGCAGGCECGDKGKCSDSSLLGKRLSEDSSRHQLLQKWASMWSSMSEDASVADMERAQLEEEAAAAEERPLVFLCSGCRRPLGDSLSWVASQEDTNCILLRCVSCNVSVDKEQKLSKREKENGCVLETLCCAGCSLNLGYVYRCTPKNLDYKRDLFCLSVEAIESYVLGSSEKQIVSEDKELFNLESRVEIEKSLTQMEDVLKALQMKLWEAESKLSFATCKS
UniProt Q9BV20: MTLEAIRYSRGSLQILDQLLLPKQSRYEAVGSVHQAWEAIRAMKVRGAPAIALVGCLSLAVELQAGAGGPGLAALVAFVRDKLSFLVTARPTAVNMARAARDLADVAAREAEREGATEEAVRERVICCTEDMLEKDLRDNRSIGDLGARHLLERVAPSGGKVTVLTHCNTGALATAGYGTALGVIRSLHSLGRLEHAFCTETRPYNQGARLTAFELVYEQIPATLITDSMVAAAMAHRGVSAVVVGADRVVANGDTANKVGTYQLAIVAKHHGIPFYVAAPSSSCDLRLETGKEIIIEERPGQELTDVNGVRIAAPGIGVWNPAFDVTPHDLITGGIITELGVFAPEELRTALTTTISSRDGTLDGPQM

These targets were tested with CC(C)N(C[C@H]1O[C@@H](n2cnc3c(N)ncnc32)[C@H](O)[C@@H]1O)[C@H]1C[C@@H](CCc2nc3cc(C(C)(C)C)ccc3[nH]2)C1 [pinometostat] (assay: log2 fold change, soluble protein after heating vs DMSO (PISA); higher = thermal stabilisation; K562 cells, 10 uM, 30 min; active = over 0.2 and 3.5 SD of the protein, either way, in both replicates (recomputed)).
How it was run: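 Soluble protein was defined as the supernatant after 21,000xg for 90 min. It came from K562 cells at 2×10^6 cells/mL given 10 μM compound for 30 min, heated in aliquots for 3 min across 48°C-58°C, pooled, and extracted in PBS with 0.5% NP-40 at 4°C, and was quantified by TMTpro 16plex LC-MS/MS with equalised channel sums. Thermal stability against control samples, from duplicates, is reported as log2 fold change.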

log2 fold change, inactive:
MIOS (UniProt Q9NXC5) 0.01
MLLT1 (UniProt Q03111) 0.024
MRPL37 (UniProt Q9BZE1) 0.12
MRPL30 isoform 2 (UniProt Q8TCC3) 0.151
MLEC (UniProt Q14165) 0.02
MRPL24 (UniProt Q96A35) 0.175
MMUT (UniProt P22033) -0.002
MRPL39 (UniProt Q9NYK5) 0.108
MRPL54 (UniProt Q6P161) 0.078
MRPL17 (UniProt Q9NRX2) 0.114
MPG (UniProt P29372) 0
MRPL48 (UniProt Q96GC5) 0.106
MRM3 (UniProt Q9HC36) 0.441
MRPL20 (UniProt Q9BYC9) 0.189
MRPL49 (UniProt Q13405) 0.105
MRPL4 (UniProt Q9BYD3) 0.123
MPZL1 (UniProt O95297) -0.029
MOB1B isoform 2 (UniProt Q7L9L4) -0.021
MPRIP isoform 2 (UniProt Q6WCQ1) 0.168
MRPL44 (UniProt Q9H9J2) 0.124
MRPL21 (UniProt Q7Z2W9) 0.141
MICOS10 (UniProt Q5TGZ0) 0.007
MRPL40 (UniProt Q9NQ50) 0.137
MMGT1 (UniProt Q8N4V1) -0.031
MINPP1 (UniProt Q9UNW1) -0.024
MRE11 isoform 3 (UniProt P49959) -0.02
MPST isoform 2 (UniProt P25325) -0.065
MRPL11 (UniProt Q9Y3B7) 0.108
MRPL12 (UniProt P52815) -0.054
MPC2 (UniProt O95563) -0.06
MOCS1 isoform 8 (UniProt Q9NZB8) -0.077
MIS18A (UniProt Q9NYP9) -0.037
MRI1 (UniProt Q9BV20) -0.002
MOGS (UniProt Q13724) 0.062
MRPL45 (UniProt Q9BRJ2) 0.064
MRPL43 isoform 4 (UniProt Q8N983) 0.14
MINDY3 (UniProt Q9H8M7) -0.084
MRPL13 (UniProt Q9BYD1) 0.169

2 neighbouring records already listed, quoted:
log2 fold change, inactive:
MRPL48 (UniProt Q96GC5) 0.106
MRM3 (UniProt Q9HC36) 0.441
